Test system: fatty acid biosynthesis in S. carnosus TM300
Format: cell-based, Staphylococcus carnosus
Conditions: S. carnosus TM300, 2× MIC, normalized to OD600, three independent experiments
Method: Radiolabel incorporation experiments were carried out similarly as previously described but using S. carnosus ([Wu et al., 2019]). The OD600 of parallel nonradioactive cultures was measured at each time point to normalize the measured radioactivity and minimize effects due to cell death and growth inhibition. The radiolabeled reagents and their corresponding positive and negative antibiotic controls were as follows. Fatty acid: [^14C]-acetic acid (American Radiolabeled Chemicals, ARC 0101A), positive control: isoniazid (Sigma), negative control: ciprofloxacin. Cell wall: [^14C]-N-acetyl-D-glucosamine (American Radiolabeled Chemicals, ARC 0105), positive control: vancomycin, negative control: ciprofloxacin. DNA: [^14C]-thymidine (American Radiolabeled Chemicals, ARC 1219), positive control: ciprofloxacin, negative control: rifampicin. RNA: [5-^3H]-uridine (PerkinElmer, NET174250UC), positive control: rifampicin, negative control: ciprofloxacin. Amino acids: [^14C]-L-amino acid mixture (PerkinElmer, NEC850E050UC), positive control: chloramphenicol, negative control: ciprofloxacin. All experiments were conducted independently three times.
Figure S3. […] T he p ercent i nco rpo ratio n at 0 min was measured after incubati ng the cel l cultur e with 0.8 μCi/mL radioactive precursors for 15 min. […]

## O=C(O)c1cn(C2CC2)c2cc(N3CCNCC3)c(F)cc2c1=O [ciprofloxacin, reference compound]
  fatty acid biosynthesis (14C-acetic acid incorporation): much smaller

Source: publication PMC10652874, “Investigation into the mechanism of action of the antimicrobial peptide epilancin 15X” (Frontiers in Microbiology, 2023)
